# According to the supplement of paper PMC9135407:
# Values joined by “and” are separate entries in the source; they are usually repeats but may differ in a detail not shown here. Identical values can stand only once. Counter-ions that a name gives are not always drawn. ± gives the standard deviation of the averaged measurements. Some of the results follow. Baselines shift from plate to plate; read single values as rough.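 Culture-activated primary human stellate myofibroblasts, where regained lipid droplets signal inactivation. Value: share of Hoechst-counted cells above a per-plate Bodipy cutoff, in duplicate wells, with DMSO negative and nortriptyline positive controls on each plate. Hits: a control-normalized score above the plate's top-tenth-percentile nortriptyline wells, or one of a plate's three best wells. Final well concentrations are not given.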
# System: primary human hepatic stellate cells (donor 1)
# Assay: percent Bodipy-positive cells; higher = more lipid droplet accumulation
# Conditions: 48 h
# [1] = library stock concentration: 10 mM
# [2] = library stock concentration: 1 mM
# [3] = library stock concentration: 3.33 mM
# [4] = library stock concentration: 80 uM
# [5] = library stock concentration: 400 uM
# [6] = library stock concentration: 2 mM
smiles,measurement,setting,value
C[N+](C)(C)CC(O)CC(=O)[O-] (centres undefined) [Carnitine hydrochloride],percent Bodipy-positive cells,[1],20.2 ± 1.2%
NC(N)=N[C@@H](CCC(=O)O)C(=O)O [.alpha.-Guanidinoglutaric Acid],percent Bodipy-positive cells,[2],8.65 ± 2.4%
NC(N)=N[C@@H](CCC(=O)O)C(=O)O [alpha-Guanidinoglutaric acid],percent Bodipy-positive cells,[1],31.1 ± 6.5%
N#C/C(=C1/SC[C@@H](c2ccc(Cl)cc2Cl)S1)n1ccnc1 [Luliconazole],percent Bodipy-positive cells,[3],10.7 ± 1.3%
same,percent Bodipy-positive cells,[1],28.7 ± 15%
COc1cc(N2CCN(C)CC2)ccc1Nc1ncc2c(n1)N(C)c1ccccc1C(=O)N2C,percent Bodipy-positive cells,[4],22 ± 0.98%
same,percent Bodipy-positive cells,[5],22.4 ± 3.2%
same,percent Bodipy-positive cells,[6],37.4 ± 5%
same,percent Bodipy-positive cells,[1],72.7 ± 6.1%
CCCCOc1cc(C(=O)OCCN(CC)CC)ccc1N [Benoxinate hydrochloride],percent Bodipy-positive cells,,45 ± 2.6%
CCCCOc1cc(C(=O)OCCN(CC)CC)ccc1N [Oxybuprocaine HCl],percent Bodipy-positive cells,[3],15.3 ± 1.5%
same,percent Bodipy-positive cells,[1],55.6 ± 2.2%
O=C1O[C@H]([C@@H](O)CO)C([O-])=C1O.[Na+] [Sodium ascorbate],percent Bodipy-positive cells,[3],13.3 ± 8.1%
same,percent Bodipy-positive cells,[1],36.9 ± 12%
CCCCC[C@H](O)/C=C/[C@H]1C(=O)C=C[C@@H]1C/C=C\CCCC(=O)O [Prostaglandin J2],percent Bodipy-positive cells,[2],16.9% and 17.2%
O=C(O)CCCC=CCC1C(=O)CC(O)C1C=CC(O)CCc1ccccc1 (centres undefined) [17-Phenyl-trinor-prostaglandin E2],percent Bodipy-positive cells,[2],11.5 ± 12%
O=C(O)CCCC=CCC1C(=O)CC(O)C1C=CC(O)CCc1ccccc1 (centres undefined) [17-phenyl trinor Prostaglandin E2],percent Bodipy-positive cells,[2],13.9 ± 6.1%
CC(C)c1ccccc1S(=O)(=O)c1cc(N)c2ncccc2c1[N+](=O)[O-],percent Bodipy-positive cells,[1],54.9 ± 28%
"CC(C)(C)c1cc(O)c(C(C)(C)C)cc1O [2,5-Ditertbutylhydroquinone]",percent Bodipy-positive cells,library stock concentration: 22.5 mM,57.1 ± 8.9%
Cc1ccc(S(=O)(=O)Nc2nc3ccccc3nc2Nc2ccc3nsnc3c2)cc1,percent Bodipy-positive cells,[4],11.5 ± 2.8%
same,percent Bodipy-positive cells,[5],19.9 ± 10%
same,percent Bodipy-positive cells,[6],14.6 ± 1.4%
same,percent Bodipy-positive cells,[3],7.09 ± 0.38%
same,percent Bodipy-positive cells,[1],17.6% and 18.4%
CCOC(=O)C1=C(N)Oc2ccc(Br)cc2C1C(C#N)C(=O)OCC (centres undefined),percent Bodipy-positive cells,[3],35.7 ± 1.8%
same,percent Bodipy-positive cells,[1],5.9 ± 0.9%
CCCCC(CC)COC(=O)CC(C(=O)OCC(CC)CCCC)S(=O)(=O)O (centres undefined),percent Bodipy-positive cells,[1],22.3 ± 8.1%
C[C@H]1C[C@H]2[C@@H]3CCC4=CC(=O)C=C[C@]4(C)[C@@]3(F)[C@@H](O)C[C@]2(C)[C@@]1(O)C(=O)COP(=O)(O)O,percent Bodipy-positive cells,[1],22.5 ± 6.5%
CC1CCN(CC[C@H]2CCCN2S(=O)(=O)c2cccc(O)c2)CC1,percent Bodipy-positive cells,[3],14.9 ± 8.8%
same,percent Bodipy-positive cells,[1],25.4% and 25.1% and 13.4%
Nc1ncnc2c1ncn2[C@@H]1O[C@H](CO)[C@@H](O)[C@@H]1O [Vidarabine],percent Bodipy-positive cells,,15.6 ± 6.1%
same,percent Bodipy-positive cells,[3],8.76 ± 0.11%
same,percent Bodipy-positive cells,library stock concentration: 7.5 mM,8.9% and 20.6%
same,percent Bodipy-positive cells,[1],16.8% and 23.4%
Nc1n[nH]c(N)c1N=Nc1ccc(O)cc1 [Cdk9 Inhibitor II],percent Bodipy-positive cells,[3],11.3 ± 0.89%
CC(C)OC(=O)CCC/C=C\C[C@@H]1[C@@H](/C=C/C(=O)COc2cccc(C(F)(F)F)c2)[C@H](O)C[C@@H]1O [15-keto Fluprostenol isopropyl ester],percent Bodipy-positive cells,[2],16.2 ± 5.8%
CCOc1nc2cccc(C(=O)O)c2n1Cc1ccc(-c2ccccc2-c2nnn[nH]2)cc1 [Candesartan],percent Bodipy-positive cells,[3],6.539 ± 0.0042%
same,percent Bodipy-positive cells,library stock concentration: 4.5 mM,8.02 ± 4.4%
same,percent Bodipy-positive cells,[1],17.5 ± 6.1%
C[C@@](Cc1ccc(O)c(O)c1)(NN)C(=O)O,percent Bodipy-positive cells,[1],20 ± 2.5%
C[C@@](Cc1ccc(O)c(O)c1)(NN)C(=O)O [Carbidopa],percent Bodipy-positive cells,[3],8 ± 5.7%
same,percent Bodipy-positive cells,library stock concentration: 8.8 mM,5.56% and 16.4%
same,percent Bodipy-positive cells,[1],10.1 ± 0.86%
O=C[C@@H]1CCCN1C(=O)[C@@H]1CCCN1C(=O)OCc1ccccc1 [Z-prolyl-prolinal],percent Bodipy-positive cells,library stock concentration: 15.1 mM,24.9 ± 5.5%
CCN(CC)CCCCNc1ncc2cc(-c3c(Cl)cccc3Cl)c(NC(=O)NC(C)(C)C)nc2n1,percent Bodipy-positive cells,[1],84.69 ± 0.52%
C=CC(=O)Nc1cccc(Oc2nc(Nc3ccc(N4CCN(C)CC4)cc3)ncc2Cl)c1,percent Bodipy-positive cells,[3],60.9 ± 7.5%
same,percent Bodipy-positive cells,[1],100%
NC[C@@H]1O[C@H](C23CC4CC(CC(C4)C2)C3)Cc2c1ccc(O)c2O,percent Bodipy-positive cells,[1],100%
CC1OC2(CS1)CN1CCC2CC1 (centres undefined) [Cevimeline hydrochloride],percent Bodipy-positive cells,[1],7.76 ± 1.9%
COc1ccc(Cl)cc1NC(=O)Nc1cc(C)nc2ccccc12,percent Bodipy-positive cells,[3],53.4 ± 1.8%
same,percent Bodipy-positive cells,[1],29.1 ± 0.56%
COc1ccc(Cl)cc1NC(=O)Nc1cc(C)nc2ccccc12 [IGF-1R Inhibitor II],percent Bodipy-positive cells,[3],29.3 ± 1.6%
CN(C)CCC(c1ccc(Br)cc1)c1ccccn1 (centres undefined) [Brompheniramine maleate],percent Bodipy-positive cells,,47.2 ± 3.1%
same,percent Bodipy-positive cells,[1],59.6 ± 4.3%
CN(C)CCC(c1ccc(Br)cc1)c1ccccn1 (centres undefined) [Brompheniramine hydrogen maleate],percent Bodipy-positive cells,[3],23.8 ± 4%
same,percent Bodipy-positive cells,[1],55.4 ± 5.3%
CCCCn1c2ccc(O)cc2c2c3c(c(-c4ccccc4Cl)cc21)C(=O)NC3=O [Wee1 Inhibitor II],percent Bodipy-positive cells,[3],2.58 ± 0.33%
O=C(Nc1ncc(SCCN2CCCC2)s1)[C@]1(c2ccc(S(=O)(=O)C3CC3)cc2)C[C@@H]1C1CCCCC1,percent Bodipy-positive cells,[3],98.5 ± 1.6%
O=C1CC[C@@H](C(=O)N2CSC[C@H]2C(=O)O)N1 [Pidotimod],percent Bodipy-positive cells,[3],4.95 ± 0.47%
same,percent Bodipy-positive cells,[1],21 ± 13%
O=C1CC[C@@H](C(=O)N2CSC[C@H]2C(=O)O)N1,percent Bodipy-positive cells,[1],13.4 ± 4.5%
"COc1ccccc1N1CCN(CCCNc2c(C)c(=O)n(C)c(=O)n2C)CC1 [Urapidil, 5-Methyl-]",percent Bodipy-positive cells,[1],27.3 ± 3%
c1ccc(-c2ccc(C(c3ccccc3)n3ccnc3)cc2)cc1 (centres undefined) [Bifonazole],percent Bodipy-positive cells,[3],9.89 ± 1.8%
same,percent Bodipy-positive cells,library stock concentration: 6.4 mM,12.5% and 28.5%
same,percent Bodipy-positive cells,[1],38.3% and 46.6%
c1ccc(-c2ccc(C(c3ccccc3)n3ccnc3)cc2)cc1 (centres undefined),percent Bodipy-positive cells,[1],26.1 ± 13%
Oc1c(Cl)cc(Cl)c2cccnc12 [Chloroxine],percent Bodipy-positive cells,[3],6.8 ± 1.6%
same,percent Bodipy-positive cells,library stock concentration: 9.3 mM,20.1 ± 4.1%
O=C(O)CCC/C=C\C[C@H]1C(=O)C=C[C@@H]1/C=C/[C@@H](O)COc1ccccc1 [16-phenoxy tetranor Prostaglandin A2],percent Bodipy-positive cells,[2],14.1 ± 3%
C[C@]12CCC(=O)C=C1CC[C@@H]1[C@@H]2CC[C@@]2(C)[C@H]1CC[C@]2(O)C(=O)CO [Cortexolone],percent Bodipy-positive cells,[1],10.9 ± 0.6%
C[C@]12CCC(=O)C=C1CC[C@@H]1[C@@H]2CC[C@@]2(C)[C@H]1CC[C@]2(O)C(=O)CO [Reichstein?s substance?S],percent Bodipy-positive cells,[1],7.18 ± 0.2%
COC(=O)C1=C(C)NC(C)=C(C(=O)OC(C)(C)CN(C)CCC(c2ccccc2)c2ccccc2)C1c1cccc([N+](=O)[O-])c1 (centres undefined) [Lercanidipine hydrochloride hemihydrate],percent Bodipy-positive cells,[1],64.9 ± 7%
COc1cc2nccc(Oc3ccc(NC(=O)Nc4ccc(F)cc4F)c(F)c3)c2cc1OC,percent Bodipy-positive cells,[1],67.2 ± 1.1%
CN1CC(O)C(O)C(O)C1CO (centres undefined) [N-Methyl-1-deoxynojirimycin],percent Bodipy-positive cells,[1],51.2 ± 13%
